From the supplement of paper PMC10032668
The other results are listed elsewhere or left out. Only hits are listed; about a third recur on repeated control peptides.

Protein sequences, listed by entry. Tags and fused reporters are not part of them.
KPNA1, P52294, UniProt P52294, whole entry: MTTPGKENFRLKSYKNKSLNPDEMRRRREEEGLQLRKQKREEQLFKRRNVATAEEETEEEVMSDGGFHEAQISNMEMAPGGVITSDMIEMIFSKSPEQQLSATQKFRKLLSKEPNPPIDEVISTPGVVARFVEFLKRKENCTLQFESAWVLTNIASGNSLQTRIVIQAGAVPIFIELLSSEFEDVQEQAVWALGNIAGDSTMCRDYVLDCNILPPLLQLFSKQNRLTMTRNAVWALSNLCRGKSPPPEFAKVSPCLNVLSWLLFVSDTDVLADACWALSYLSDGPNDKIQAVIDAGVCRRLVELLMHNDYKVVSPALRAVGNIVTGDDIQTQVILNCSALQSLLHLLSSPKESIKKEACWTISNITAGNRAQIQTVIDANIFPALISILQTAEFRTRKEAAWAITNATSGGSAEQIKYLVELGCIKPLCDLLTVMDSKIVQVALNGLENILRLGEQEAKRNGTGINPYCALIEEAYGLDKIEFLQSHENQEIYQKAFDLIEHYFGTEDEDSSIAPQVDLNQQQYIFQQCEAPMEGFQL
GNAI2, P04899, UniProt P04899, whole entry: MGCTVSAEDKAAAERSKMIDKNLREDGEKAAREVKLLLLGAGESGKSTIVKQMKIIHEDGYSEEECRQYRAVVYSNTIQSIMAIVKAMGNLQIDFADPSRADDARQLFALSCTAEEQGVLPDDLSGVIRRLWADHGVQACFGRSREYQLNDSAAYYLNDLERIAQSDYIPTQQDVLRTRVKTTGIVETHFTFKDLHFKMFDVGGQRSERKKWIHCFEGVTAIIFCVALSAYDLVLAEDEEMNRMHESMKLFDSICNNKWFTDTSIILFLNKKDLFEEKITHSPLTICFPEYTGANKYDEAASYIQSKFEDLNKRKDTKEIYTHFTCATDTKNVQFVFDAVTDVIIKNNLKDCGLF
MSN, P26038, UniProt P26038, whole entry: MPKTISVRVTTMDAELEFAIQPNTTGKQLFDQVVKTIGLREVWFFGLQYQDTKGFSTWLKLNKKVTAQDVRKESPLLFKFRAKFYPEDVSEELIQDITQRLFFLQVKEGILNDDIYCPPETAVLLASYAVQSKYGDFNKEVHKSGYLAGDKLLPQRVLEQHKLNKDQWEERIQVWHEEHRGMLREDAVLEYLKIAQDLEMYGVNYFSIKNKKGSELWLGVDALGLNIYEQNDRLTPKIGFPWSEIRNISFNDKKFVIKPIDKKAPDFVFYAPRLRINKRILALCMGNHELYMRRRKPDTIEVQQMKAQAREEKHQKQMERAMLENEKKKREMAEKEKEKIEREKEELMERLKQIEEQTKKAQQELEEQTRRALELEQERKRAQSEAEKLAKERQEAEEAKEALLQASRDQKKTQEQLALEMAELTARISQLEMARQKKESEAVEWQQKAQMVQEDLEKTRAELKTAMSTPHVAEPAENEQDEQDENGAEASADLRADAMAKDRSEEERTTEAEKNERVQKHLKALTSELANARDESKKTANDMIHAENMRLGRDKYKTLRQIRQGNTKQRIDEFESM
NUP153, P49790, UniProt P49790, whole entry: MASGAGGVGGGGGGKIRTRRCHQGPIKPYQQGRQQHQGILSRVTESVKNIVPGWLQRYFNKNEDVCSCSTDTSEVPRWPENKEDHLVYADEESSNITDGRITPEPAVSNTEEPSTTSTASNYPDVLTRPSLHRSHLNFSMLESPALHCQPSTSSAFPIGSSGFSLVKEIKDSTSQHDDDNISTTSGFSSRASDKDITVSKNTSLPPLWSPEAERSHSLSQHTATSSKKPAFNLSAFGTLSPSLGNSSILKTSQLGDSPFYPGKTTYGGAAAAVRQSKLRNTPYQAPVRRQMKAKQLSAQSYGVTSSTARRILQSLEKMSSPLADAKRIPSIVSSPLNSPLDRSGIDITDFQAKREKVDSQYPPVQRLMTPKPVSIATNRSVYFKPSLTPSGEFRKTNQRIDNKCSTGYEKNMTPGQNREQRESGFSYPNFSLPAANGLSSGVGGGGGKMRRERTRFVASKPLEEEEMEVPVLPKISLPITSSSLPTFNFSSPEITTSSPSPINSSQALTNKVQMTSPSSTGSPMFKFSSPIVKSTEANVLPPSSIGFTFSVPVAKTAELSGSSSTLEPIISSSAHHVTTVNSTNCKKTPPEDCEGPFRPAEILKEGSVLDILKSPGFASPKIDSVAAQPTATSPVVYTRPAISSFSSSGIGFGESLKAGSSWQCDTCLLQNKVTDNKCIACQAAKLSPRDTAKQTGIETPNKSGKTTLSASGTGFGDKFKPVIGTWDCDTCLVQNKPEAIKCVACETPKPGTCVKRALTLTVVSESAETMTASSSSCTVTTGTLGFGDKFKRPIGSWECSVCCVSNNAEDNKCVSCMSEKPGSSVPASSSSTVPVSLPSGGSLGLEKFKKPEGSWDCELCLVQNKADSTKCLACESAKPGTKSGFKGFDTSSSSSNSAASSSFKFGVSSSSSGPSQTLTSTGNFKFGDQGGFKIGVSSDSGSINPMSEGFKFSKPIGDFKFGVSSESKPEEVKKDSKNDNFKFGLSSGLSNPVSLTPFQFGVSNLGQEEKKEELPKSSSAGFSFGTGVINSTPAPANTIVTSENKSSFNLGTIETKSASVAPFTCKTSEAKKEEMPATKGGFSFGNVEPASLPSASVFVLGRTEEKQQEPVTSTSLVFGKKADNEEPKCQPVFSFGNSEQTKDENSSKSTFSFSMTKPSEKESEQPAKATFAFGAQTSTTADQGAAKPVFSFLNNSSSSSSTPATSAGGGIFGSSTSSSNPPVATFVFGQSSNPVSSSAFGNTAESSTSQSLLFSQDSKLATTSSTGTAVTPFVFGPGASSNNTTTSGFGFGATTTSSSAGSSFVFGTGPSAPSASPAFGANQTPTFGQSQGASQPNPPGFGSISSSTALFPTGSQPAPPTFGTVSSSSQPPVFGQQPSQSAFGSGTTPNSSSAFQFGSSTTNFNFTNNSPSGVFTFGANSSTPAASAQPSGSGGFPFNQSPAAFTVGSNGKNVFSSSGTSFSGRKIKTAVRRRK
PDIA3, P30101, UniProt P30101, whole entry: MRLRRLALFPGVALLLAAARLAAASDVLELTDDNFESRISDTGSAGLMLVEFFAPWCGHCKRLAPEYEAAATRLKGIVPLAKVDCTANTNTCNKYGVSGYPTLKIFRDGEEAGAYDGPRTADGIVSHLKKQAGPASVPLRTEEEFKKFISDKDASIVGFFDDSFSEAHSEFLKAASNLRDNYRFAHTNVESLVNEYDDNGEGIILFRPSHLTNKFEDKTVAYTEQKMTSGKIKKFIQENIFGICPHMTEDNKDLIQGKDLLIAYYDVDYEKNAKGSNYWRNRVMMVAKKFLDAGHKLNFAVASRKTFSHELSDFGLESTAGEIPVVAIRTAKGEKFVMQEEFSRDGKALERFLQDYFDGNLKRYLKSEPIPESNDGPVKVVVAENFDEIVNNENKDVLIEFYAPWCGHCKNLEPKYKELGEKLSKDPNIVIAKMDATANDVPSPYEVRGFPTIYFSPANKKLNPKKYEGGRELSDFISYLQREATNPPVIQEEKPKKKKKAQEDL
PFN2, P35080, UniProt P35080, whole entry: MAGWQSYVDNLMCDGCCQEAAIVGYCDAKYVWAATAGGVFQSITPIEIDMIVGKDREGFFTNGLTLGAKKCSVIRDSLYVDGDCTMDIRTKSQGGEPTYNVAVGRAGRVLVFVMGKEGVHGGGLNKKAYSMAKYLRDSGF
TUBB2B, Q9BVA1, UniProt Q9BVA1, whole entry: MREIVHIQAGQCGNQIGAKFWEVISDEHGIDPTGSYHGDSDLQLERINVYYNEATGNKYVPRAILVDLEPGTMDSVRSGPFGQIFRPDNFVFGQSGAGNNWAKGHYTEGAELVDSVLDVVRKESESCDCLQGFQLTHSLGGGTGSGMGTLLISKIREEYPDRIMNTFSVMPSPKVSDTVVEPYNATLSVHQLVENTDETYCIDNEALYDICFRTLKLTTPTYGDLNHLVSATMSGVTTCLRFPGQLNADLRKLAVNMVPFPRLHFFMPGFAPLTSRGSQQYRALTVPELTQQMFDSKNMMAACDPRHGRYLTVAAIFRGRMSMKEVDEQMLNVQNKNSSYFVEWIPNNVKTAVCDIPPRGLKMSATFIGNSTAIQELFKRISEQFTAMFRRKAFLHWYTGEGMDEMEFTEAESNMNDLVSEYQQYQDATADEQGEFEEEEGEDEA
CDC20, Q12834, UniProt Q12834, whole entry: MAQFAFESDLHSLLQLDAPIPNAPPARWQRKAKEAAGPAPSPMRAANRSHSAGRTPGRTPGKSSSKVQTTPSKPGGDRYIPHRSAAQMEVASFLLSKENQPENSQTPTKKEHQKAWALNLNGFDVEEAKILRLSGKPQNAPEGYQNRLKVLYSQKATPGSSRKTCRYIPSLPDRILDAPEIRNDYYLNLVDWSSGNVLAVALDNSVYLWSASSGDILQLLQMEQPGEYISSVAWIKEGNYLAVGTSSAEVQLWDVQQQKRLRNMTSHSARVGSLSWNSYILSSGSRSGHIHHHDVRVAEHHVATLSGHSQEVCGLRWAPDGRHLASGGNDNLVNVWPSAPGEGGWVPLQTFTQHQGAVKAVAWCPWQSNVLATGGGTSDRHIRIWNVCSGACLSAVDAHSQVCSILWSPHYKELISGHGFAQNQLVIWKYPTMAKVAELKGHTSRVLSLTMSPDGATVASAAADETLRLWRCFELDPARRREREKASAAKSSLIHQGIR
COL1A1, P02452, UniProt P02452, whole entry: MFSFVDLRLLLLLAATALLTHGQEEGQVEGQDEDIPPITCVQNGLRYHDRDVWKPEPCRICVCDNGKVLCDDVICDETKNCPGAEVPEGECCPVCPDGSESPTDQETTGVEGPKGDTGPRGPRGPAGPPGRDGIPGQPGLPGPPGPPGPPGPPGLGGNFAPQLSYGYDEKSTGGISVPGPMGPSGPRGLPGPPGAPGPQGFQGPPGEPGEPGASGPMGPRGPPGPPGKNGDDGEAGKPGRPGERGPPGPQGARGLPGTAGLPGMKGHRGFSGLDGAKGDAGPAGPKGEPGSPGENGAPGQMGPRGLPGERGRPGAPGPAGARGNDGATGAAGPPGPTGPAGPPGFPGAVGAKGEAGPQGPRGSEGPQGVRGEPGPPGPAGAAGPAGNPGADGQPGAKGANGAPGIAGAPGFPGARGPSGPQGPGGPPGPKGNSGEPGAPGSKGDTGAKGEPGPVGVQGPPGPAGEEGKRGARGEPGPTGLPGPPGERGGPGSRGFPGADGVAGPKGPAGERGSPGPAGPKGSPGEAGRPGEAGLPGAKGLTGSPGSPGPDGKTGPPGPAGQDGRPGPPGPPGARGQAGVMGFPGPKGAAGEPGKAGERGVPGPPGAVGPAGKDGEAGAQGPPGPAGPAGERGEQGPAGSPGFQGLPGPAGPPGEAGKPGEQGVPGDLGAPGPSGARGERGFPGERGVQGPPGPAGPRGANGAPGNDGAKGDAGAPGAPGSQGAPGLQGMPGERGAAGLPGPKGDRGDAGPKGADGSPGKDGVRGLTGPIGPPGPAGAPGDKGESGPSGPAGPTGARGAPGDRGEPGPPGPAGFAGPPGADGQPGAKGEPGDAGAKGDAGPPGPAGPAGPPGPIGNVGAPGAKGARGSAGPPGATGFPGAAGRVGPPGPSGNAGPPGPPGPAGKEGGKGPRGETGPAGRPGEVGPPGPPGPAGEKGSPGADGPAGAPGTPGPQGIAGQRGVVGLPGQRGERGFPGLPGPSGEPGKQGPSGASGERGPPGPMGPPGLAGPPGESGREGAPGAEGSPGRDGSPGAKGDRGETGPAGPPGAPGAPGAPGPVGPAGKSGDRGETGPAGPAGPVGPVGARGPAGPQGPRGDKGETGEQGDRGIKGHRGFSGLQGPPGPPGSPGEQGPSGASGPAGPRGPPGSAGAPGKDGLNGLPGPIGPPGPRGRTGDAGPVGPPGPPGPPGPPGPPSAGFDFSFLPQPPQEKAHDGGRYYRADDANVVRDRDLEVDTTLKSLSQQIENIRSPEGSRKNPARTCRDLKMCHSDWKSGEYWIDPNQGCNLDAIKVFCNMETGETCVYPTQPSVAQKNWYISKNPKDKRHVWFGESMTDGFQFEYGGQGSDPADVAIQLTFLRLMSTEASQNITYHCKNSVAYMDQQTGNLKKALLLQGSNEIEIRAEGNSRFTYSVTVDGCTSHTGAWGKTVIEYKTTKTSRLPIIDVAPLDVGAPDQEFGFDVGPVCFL
RAD18, Q9NS91, UniProt Q9NS91, whole entry: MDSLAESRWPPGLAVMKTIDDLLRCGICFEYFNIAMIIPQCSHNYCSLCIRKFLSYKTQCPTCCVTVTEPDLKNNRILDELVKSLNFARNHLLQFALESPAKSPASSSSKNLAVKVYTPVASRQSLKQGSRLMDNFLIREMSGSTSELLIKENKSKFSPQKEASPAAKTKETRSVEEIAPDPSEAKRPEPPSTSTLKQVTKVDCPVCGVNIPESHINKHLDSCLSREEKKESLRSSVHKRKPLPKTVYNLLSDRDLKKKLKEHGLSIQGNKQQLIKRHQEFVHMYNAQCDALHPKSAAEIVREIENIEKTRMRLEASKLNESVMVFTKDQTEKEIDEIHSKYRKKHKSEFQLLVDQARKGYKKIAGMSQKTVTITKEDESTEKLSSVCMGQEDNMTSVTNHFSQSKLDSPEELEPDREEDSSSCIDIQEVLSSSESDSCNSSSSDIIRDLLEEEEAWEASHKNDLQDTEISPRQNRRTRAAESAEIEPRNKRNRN

What was measured:
Assay in all cases: PRISMA enrichment of interactor (LFQ) in peptide spot vs all other peptide spots (log2 fold change); higher = stronger / more specific binding of the interactor to the peptide
[1] = target: ACIN1, Q9UKV3
Method: (§1)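 PRISMA: 221 full-length sORF-encoded peptides (3-15 aa), plus SOS1/GLUT1 control peptides, were spot-synthesized on cellulose membranes in triplicate. Membranes were incubated with HEK293T lysate, and bound proteins were identified by LC-MS/MS with LFQ. Enrichment is the log2 fold change versus all other peptide spots; only significant interactors are listed (cutoff c=6, x0=2.8).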

[2] = target: ANP32A, P39687
Method: as §1

[3] = target: ANP32B, Q92688
Method: as §1

[4] = target: ANP32E, Q9BTT0
Method: as §1

[5] = target: BRIX1, Q8TDN6
Method: as §1

[6] = target: CDC73, Q6P1J9
Method: as §1

[7] = target: CTR9, Q6PD62
Method: as §1

[8] = target: DAP3, P51398
Method: as §1

[9] = target: DDX21, Q9NR30
Method: as §1

[10] = target: EBNA1BP2, Q99848
Method: as §1

[11] = target: EIF2A, Q9BY44
Method: as §1

[12] = target: EIF6, P56537
Method: as §1

[13] = target: GNL2, Q13823
Method: as §1

[14] = target: GPC4, O75487
Method: as §1

[15] = target: GRSF1, Q12849
Method: as §1

[16] = target: GRWD1, Q9BQ67
Method: as §1

[17] = target: GTPBP4, Q9BZE4
Method: as §1

[18] = target: HTATSF1, O43719
Method: as §1

[19] = target: IGF2BP3, O00425
Method: as §1

[20] = target: KPNA1, P52294
Method: as §1

[21] = target: LARP1, Q6PKG0
Method: as §1

[22] = target: LARP7, Q4G0J3
Method: as §1

[23] = target: LTV1, Q96GA3
Method: as §1

[24] = target: MAGEB2, O15479
Method: as §1

[25] = target: MOV10, Q9HCE1
Method: as §1

[26] = target: MRPL10, Q7Z7H8
Method: as §1

[27] = target: MRPS2, Q9Y399
Method: as §1

[28] = target: MRPS27, Q92552
Method: as §1

[29] = target: MRPS31, Q92665
Method: as §1

[30] = target: MRPS34, P82930
Method: as §1

[31] = target: ACACA, Q13085
Method: as §1

[32] = target: BLM, P54132
Method: as §1

[33] = target: EIF3K, Q9UBQ5
Method: as §1

[34] = target: FYTTD1, Q96QD9
Method: as §1

[35] = target: GNAI2, P04899
Method: as §1

[36] = target: MSN, P26038
Method: as §1

[37] = target: NUP153, P49790
Method: as §1

[38] = target: PDCD10, Q9BUL8
Method: as §1

[39] = target: PDIA3, P30101
Method: as §1

[40] = target: PFN2, P35080
Method: as §1

[41] = target: POLDIP2, Q9Y2S7
Method: as §1

[42] = target: POP7, O75817
Method: as §1

[43] = target: RAB14, P61106
Method: as §1

[44] = target: RPP38, P78345
Method: as §1

[45] = target: SDF4, Q9BRK5
Method: as §1

[46] = target: TUBB2B, Q9BVA1
Method: as §1

[47] = target: ZC3H15, Q8WU90
Method: as §1

[48] = target: ACAT2, Q9BWD1
Method: as §1

[49] = target: CDC20, Q12834
Method: as §1

[50] = target: COL1A1, P02452
Method: as §1

[51] = target: COL1A2, P08123
Method: as §1

[52] = target: GPC1, P35052
Method: as §1

[53] = target: HASPIN, Q8TF76
Method: as §1

[54] = target: MCU, Q8NE86
Method: as §1

[55] = target: MRPL55, Q7Z7F7
Method: as §1

[56] = target: NAE1, Q13564
Method: as §1

[57] = target: RAD18, Q9NS91
Method: as §1

[58] = target: SKI, P12755
Method: as §1

[59] = target: VPS52, Q8N1B4
Method: as §1

[60] = target: CHPT1, Q8WUD6
Method: as §1

[61] = target: GCOM1
Method: as §1

[62] = target: GPATCH8, Q9UKJ3
Method: as §1

[63] = target: PDF, Q9HBH1
Method: as §1

Q: Which results are given for MQAGKRN [PKIG]?
A: PRISMA enrichment of interactor (log2) [1]: 5.51; PRISMA enrichment of interactor (log2) [2]: 6.61; PRISMA enrichment of interactor (log2) [3]: 7.24; PRISMA enrichment of interactor (log2) [4]: 7.69; PRISMA enrichment of interactor (log2) [5]: 5.03; PRISMA enrichment of interactor (log2) [6]: 5.33; PRISMA enrichment of interactor (log2) [7]: 6.13; PRISMA enrichment of interactor (log2) [8]: 5.07; PRISMA enrichment of interactor (log2) [9]: 6.46; PRISMA enrichment of interactor (log2) [10]: 5.58; PRISMA enrichment of interactor (log2) [11]: 4.46; PRISMA enrichment of interactor (log2) [12]: 6.71; PRISMA enrichment of interactor (log2) [13]: 5.72; PRISMA enrichment of interactor (log2) [14]: 5.59; PRISMA enrichment of interactor (log2) [15]: 4.7; PRISMA enrichment of interactor (log2) [16]: 5.48; PRISMA enrichment of interactor (log2) [17]: 6.14; PRISMA enrichment of interactor (log2) [18]: 7.33; PRISMA enrichment of interactor (log2) [19]: 5.6; PRISMA enrichment of interactor (log2) [20]: 5.76; PRISMA enrichment of interactor (log2) [21]: 6.63; PRISMA enrichment of interactor (log2) [22]: 4.99; PRISMA enrichment of interactor (log2) [23]: 4.69; PRISMA enrichment of interactor (log2) [24]: 5.52; PRISMA enrichment of interactor (log2) [25]: 6.19; PRISMA enrichment of interactor (log2) [26]: 5.13; PRISMA enrichment of interactor (log2) [27]: 4.84; PRISMA enrichment of interactor (log2) [28]: 5.59; PRISMA enrichment of interactor (log2) [29]: 5.95; PRISMA enrichment of interactor (log2) [30]: 5.67

Q: With MAHQLESILAMRKRM [ATF2] as the binder, how does the “PRISMA enrichment of interactor (log2)” value [31] read?
A: 4.29

Q: And the “PRISMA enrichment of interactor (log2)” value [32]?
A: 7.13

Q: What about the “PRISMA enrichment of interactor (log2)” value [33] of the same binder?
A: 5.75

Q: And the “PRISMA enrichment of interactor (log2)” value [34]?
A: 5.74

Q: And the “PRISMA enrichment of interactor (log2)” value [35]?
A: 5.73

Q: What about the “PRISMA enrichment of interactor (log2)” value [36] of the same binder?
A: 4.87

Q: What about the “PRISMA enrichment of interactor (log2)” value [37] of the same binder?
A: 5.21

Q: What about the “PRISMA enrichment of interactor (log2)” value [38] of the same binder?
A: 4.55

Q: And the “PRISMA enrichment of interactor (log2)” value [39]?
A: 7.56

Q: And the “PRISMA enrichment of interactor (log2)” value [40]?
A: 5.82

Q: And the “PRISMA enrichment of interactor (log2)” value [41]?
A: 7

Q: And the “PRISMA enrichment of interactor (log2)” value [42]?
A: 4.15

Q: What about the “PRISMA enrichment of interactor (log2)” value [43] of the same binder?
A: 6.94

Q: And the “PRISMA enrichment of interactor (log2)” value [44]?
A: 4.49

Q: And the “PRISMA enrichment of interactor (log2)” value [45]?
A: 6.62

Q: And the “PRISMA enrichment of interactor (log2)” value [46]?
A: 7.67

Q: What about the “PRISMA enrichment of interactor (log2)” value [47] of the same binder?
A: 5.07

Q: Which results are given for MAAAAGRP [TMEM259]?
A: PRISMA enrichment of interactor (log2) [48]: 4.37; PRISMA enrichment of interactor (log2) [49]: 5.69; PRISMA enrichment of interactor (log2) [50]: 4.35; PRISMA enrichment of interactor (log2) [51]: 7.27; PRISMA enrichment of interactor (log2) [52]: 6.58; PRISMA enrichment of interactor (log2) [53]: 4.42; PRISMA enrichment of interactor (log2) [54]: 11.9; PRISMA enrichment of interactor (log2) [55]: 4.6; PRISMA enrichment of interactor (log2) [56]: 5.69; PRISMA enrichment of interactor (log2) [57]: 6.76; PRISMA enrichment of interactor (log2) [58]: 6.05; PRISMA enrichment of interactor (log2) [59]: 13.4

Q: With MASKALAAEKWPRSP [FAM63B] as the binder, how does the “PRISMA enrichment of interactor (log2)” value [48] read?
A: 4.46

Q: And the “PRISMA enrichment of interactor (log2)” value [60]?
A: 3.79

Q: And the “PRISMA enrichment of interactor (log2)” value [61]?
A: 3.64

Q: What about the “PRISMA enrichment of interactor (log2)” value [62] of the same binder?
A: 4.16

Q: What about the “PRISMA enrichment of interactor (log2)” value [63] of the same binder?
A: 6.81
